Results are given in words; binding and its absence hold for the method and conditions named. Binding seen in cells or lysates may run through a third protein. Some entries that bind do so weakly or less than the wild type. For some assays here: Where a sequence is shown, tags or fusion partners need not be part of it.
T1: endogenous SAP30BP (human (endogenous in HeLa)) (UniProt Q9UHR5)
T1 sequence: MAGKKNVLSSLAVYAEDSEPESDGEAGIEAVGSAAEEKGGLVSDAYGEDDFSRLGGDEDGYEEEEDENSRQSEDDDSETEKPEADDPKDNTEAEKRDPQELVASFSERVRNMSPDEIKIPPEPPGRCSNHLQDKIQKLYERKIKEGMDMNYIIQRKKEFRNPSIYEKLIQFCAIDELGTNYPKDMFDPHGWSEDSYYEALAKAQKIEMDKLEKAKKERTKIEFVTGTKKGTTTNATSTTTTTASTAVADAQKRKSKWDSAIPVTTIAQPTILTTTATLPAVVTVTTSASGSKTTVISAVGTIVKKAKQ

T2: Flag-RBM17 (human) (UniProt Q96I25)
T2 sequence: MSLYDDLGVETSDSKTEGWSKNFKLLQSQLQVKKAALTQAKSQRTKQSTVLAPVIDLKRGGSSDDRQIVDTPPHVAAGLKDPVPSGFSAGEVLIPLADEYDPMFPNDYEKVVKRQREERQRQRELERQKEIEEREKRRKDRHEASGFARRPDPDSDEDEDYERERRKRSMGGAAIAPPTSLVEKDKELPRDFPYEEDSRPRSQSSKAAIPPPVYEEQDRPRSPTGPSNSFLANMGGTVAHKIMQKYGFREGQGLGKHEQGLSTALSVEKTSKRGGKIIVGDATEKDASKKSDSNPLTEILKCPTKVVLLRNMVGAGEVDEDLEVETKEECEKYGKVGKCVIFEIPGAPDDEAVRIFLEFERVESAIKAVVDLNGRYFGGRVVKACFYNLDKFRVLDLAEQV

B1: endogenous RBM17 (protein, UniProt Q96I25 1-401)
chain: T2 sequence
B2: Myc-SAP30 (protein, UniProt O75446 1-220)
chain: MNGFTPDEMSRGGDAAAAVAAVVAAAAAAASAGNGTGAGTGAEVPGAGAVSAAGPPGAAGPGPGQLCCLREDGERCGRAAGNASFSKRIQKSISQKKVKIELDKSARHLYICDYHKNLIQSVRNRRKRKGSDDDGGDSPVQDIDTPEVDLYQLQVNTLRRYKRHFKLPTRPGLNKAQLVEIVGCHFRSIPVNEKDTLTYFIYSVKNDKNKSDLKVDSGVH

Columns and labels:
[1] = molecular target: T1, endogenous SAP30BP (human (endogenous in HeLa)); test: co-IP
Flag-RBM17 (human) = molecular target: T2, Flag-RBM17 (human); test: co-IP

Row | Binder | binding [1] | binding (Flag-RBM17 (human))
1 | B1 | binds | –
2 | B2 | – | no binding
